Laboratory results taken from patent US20160090556A1, “PRODUCTS COMPRISING MALODOR REDUCTION MATERIALS” (The Procter & Gamble Company, priority 2014, published 2016).
Some entries repeat one wording, which the source may state once for all of them.

Legend:
[1] = Melamine formaldehyde PMC Headspace Response Ratio; conditions: for Comment Code: Melamine formaldehyde PMC Headspace Response Ratio: code letter I
[2] = Melamine formaldehyde PMC leakage; conditions: for Comment Code: Melamine formaldehyde PMC leakage: code letter J

Structure (SMILES) | Melamine formaldehyde PMC Headspace Response Ratio (Comment Code I) [1] | Melamine formaldehyde PMC leakage (Comment Code J) [2] | Comment Code: Melamine formaldehyde PMC Headspace Response Ratio [1] | Comment Code: Melamine formaldehyde PMC leakage [2]
CC(=O)OC1C2(C)CCC(C2)C1(C)C (stereo not shown) [Material 878] | I (Melamine formaldehyde PMC Headspace Response Ratio greater than or equal to 10) | J (Melamine formaldehyde PMC leakage less than or equal to 5%) | – | –
CC1C(C)(C)c2ccccc2C1(C)C [Material 879] | I (Melamine formaldehyde PMC Headspace Response Ratio greater than or equal to 10) | J (Melamine formaldehyde PMC leakage less than or equal to 5%) | – | –
CC=CC(=O)C1C(C)=CCCC1(C)C (stereo not shown) [Material 880] | – | – | I (Melamine formaldehyde PMC Headspace Response Ratio greater than or equal to 10) | J (Melamine formaldehyde PMC leakage less than or equal to 5%)
CC1=CC(=O)C2CC1C2(C)C (stereo not shown) [Material 883] | – | – | I (Melamine formaldehyde PMC Headspace Response Ratio greater than or equal to 10) | J (Melamine formaldehyde PMC leakage less than or equal to 5%)
C=C[C@](C)(O)CCC=C(C)C [Material 888] | – | – | I (Melamine formaldehyde PMC Headspace Response Ratio greater than or equal to 10) | J (Melamine formaldehyde PMC leakage less than or equal to 5%)
CC(C)=CCCC(C)CC=O (stereo not shown) [Material 889] | – | – | I (Melamine formaldehyde PMC Headspace Response Ratio greater than or equal to 10) | J (Melamine formaldehyde PMC leakage less than or equal to 5%)
CC(C)=CCCC(C)CC=O (stereo not shown) [Material 891] | – | – | I (Melamine formaldehyde PMC Headspace Response Ratio greater than or equal to 10) | J (Melamine formaldehyde PMC leakage less than or equal to 5%)
CC1CCC2(O1)C(C)(C)CCCC2(C)O (stereo not shown) [Material 893] | I (Melamine formaldehyde PMC Headspace Response Ratio greater than or equal to 10) | J (Melamine formaldehyde PMC leakage less than or equal to 5%) | – | –
C=C(C)C1CCC(C)C(O)C1 (stereo not shown) [Material 897] | I (Melamine formaldehyde PMC Headspace Response Ratio greater than or equal to 10) | J (Melamine formaldehyde PMC leakage less than or equal to 5%) | – | –
CC(C)=CCCC(C)CCO (stereo not shown) [Material 899] | – | – | I (Melamine formaldehyde PMC Headspace Response Ratio greater than or equal to 10) | J (Melamine formaldehyde PMC leakage less than or equal to 5%)
CC(C)=CCCC(C)CCO (stereo not shown) [Material 900] | – | – | I (Melamine formaldehyde PMC Headspace Response Ratio greater than or equal to 10) | J (Melamine formaldehyde PMC leakage less than or equal to 5%)
C=C(C)C1CC=C(C)C(=O)C1 (stereo not shown) [Material 902] | – | – | I (Melamine formaldehyde PMC Headspace Response Ratio greater than or equal to 10) | J (Melamine formaldehyde PMC leakage less than or equal to 5%)
C=C1CCCC(C)(C)C1C=C(C)C(C)=O (stereo not shown) [Material 913] | I (Melamine formaldehyde PMC Headspace Response Ratio greater than or equal to 10) | J (Melamine formaldehyde PMC leakage less than or equal to 5%) | – | –
CC12CCCC(C)(CC1)C2=NO [Material 921] | – | – | I (Melamine formaldehyde PMC Headspace Response Ratio greater than or equal to 10) | J (Melamine formaldehyde PMC leakage less than or equal to 5%)
CC1CCC2(O)C(C)(C)C3CCC2(C)C1C3 (stereo not shown) [Material 933] | I (Melamine formaldehyde PMC Headspace Response Ratio greater than or equal to 10) | J (Melamine formaldehyde PMC leakage less than or equal to 5%) | I (Melamine formaldehyde PMC Headspace Response Ratio greater than or equal to 10) | J (Melamine formaldehyde PMC leakage less than or equal to 5%)
Cc1ccc(C(C)C)cc1 [Material 940] | – | – | I (Melamine formaldehyde PMC Headspace Response Ratio greater than or equal to 10) | J (Melamine formaldehyde PMC leakage less than or equal to 5%)
CCCCCCC1OC(=O)CC1C (stereo not shown) [Material 941] | I (Melamine formaldehyde PMC Headspace Response Ratio greater than or equal to 10) | J (Melamine formaldehyde PMC leakage less than or equal to 5%) | – | –
C=C(C)C1CC=C(C=O)CC1 (stereo not shown) [Material 946] | I (Melamine formaldehyde PMC Headspace Response Ratio greater than or equal to 10) | J (Melamine formaldehyde PMC leakage less than or equal to 5%) | – | –

Structure (SMILES) | Melamine formaldehyde PMC Headspace Response Ratio (Comment Code I) [1] | Melamine formaldehyde PMC leakage (Comment Code J) [2] | Comment Code: Melamine formaldehyde PMC Headspace Response Ratio [1] | Comment Code: Melamine formaldehyde PMC leakage [2]
C=C(C)C1CC=C(CO)CC1 (stereo not shown) [Material 948] | I (Melamine formaldehyde PMC Headspace Response Ratio greater than or equal to 10) | J (Melamine formaldehyde PMC leakage less than or equal to 5%) | – | –
CC1(C)C2CC=C(CC=O)C1C2 (stereo not shown) [Material 973] | I (Melamine formaldehyde PMC Headspace Response Ratio greater than or equal to 10) | J (Melamine formaldehyde PMC leakage less than or equal to 5%) | – | –
C=C1C(O)CC2CC1C2(C)C (stereo not shown) [Material 974] | I (Melamine formaldehyde PMC Headspace Response Ratio greater than or equal to 10) | J (Melamine formaldehyde PMC leakage less than or equal to 5%) | – | –
C=C(C)C1CCC(C)(O)C1C (stereo not shown) [Material 981] | – | – | I (Melamine formaldehyde PMC Headspace Response Ratio greater than or equal to 10) | J (Melamine formaldehyde PMC leakage less than or equal to 5%)
CC(C)C1=CCC(C)(O)CC1 (stereo not shown) [Material 982] | I (Melamine formaldehyde PMC Headspace Response Ratio greater than or equal to 10) | J (Melamine formaldehyde PMC leakage less than or equal to 5%) | – | –
C/C=C\C(=O)/C(C)=C(/C)C(C)C [Material 986] | – | – | I (Melamine formaldehyde PMC Headspace Response Ratio greater than or equal to 10) | J (Melamine formaldehyde PMC leakage less than or equal to 5%)
CCC(C)(C)C1CCC(O)CC1 (stereo not shown) [Material 995] | – | – | I (Melamine formaldehyde PMC Headspace Response Ratio greater than or equal to 10) | J (Melamine formaldehyde PMC leakage less than or equal to 5%)
C=C(C)CCC[C@H](C)CCO [Material 1004] | – | – | I (Melamine formaldehyde PMC Headspace Response Ratio greater than or equal to 10) | J (Melamine formaldehyde PMC leakage less than or equal to 5%)
C=C1CCCC(C)(C)C1C(=O)OC (stereo not shown) [Material 1010] | I (Melamine formaldehyde PMC Headspace Response Ratio greater than or equal to 10) | J (Melamine formaldehyde PMC leakage less than or equal to 5%) | – | –
CC(=O)OC(C)C1CCCC(C)(C)C1 (stereo not shown) [Material 1011] | – | – | I (Melamine formaldehyde PMC Headspace Response Ratio greater than or equal to 10) | J (Melamine formaldehyde PMC leakage less than or equal to 5%)
C=C[C@@](C)(O)CCC=C(C)C [Material 1017] | – | – | I (Melamine formaldehyde PMC Headspace Response Ratio greater than or equal to 10) | J (Melamine formaldehyde PMC leakage less than or equal to 5%)
C=C1CCC2(C(C)C)CC12 (stereo not shown) [Material 1018] | – | – | I (Melamine formaldehyde PMC Headspace Response Ratio greater than or equal to 10) | J (Melamine formaldehyde PMC leakage less than or equal to 5%)
CC(C)C12CCC(C)(O)C1C2 (stereo not shown) [Material 1019] | – | – | I (Melamine formaldehyde PMC Headspace Response Ratio greater than or equal to 10) | J (Melamine formaldehyde PMC leakage less than or equal to 5%)
C=C1C(O)CC2(C(C)C)CC12 (stereo not shown) [Material 1020] | I (Melamine formaldehyde PMC Headspace Response Ratio greater than or equal to 10) | J (Melamine formaldehyde PMC leakage less than or equal to 5%) | – | –
CC1=CC(C)C2(CCCC(C)(C)C2=O)CC1 (stereo not shown) [Material 1022] | I (Melamine formaldehyde PMC Headspace Response Ratio greater than or equal to 10) | J (Melamine formaldehyde PMC leakage less than or equal to 5%) | I (Melamine formaldehyde PMC Headspace Response Ratio greater than or equal to 10) | J (Melamine formaldehyde PMC leakage less than or equal to 5%)
CC/C(CC(C)CC)=N/O (stereo not shown) [Material 1040] | – | – | I (Melamine formaldehyde PMC Headspace Response Ratio greater than or equal to 10) | J (Melamine formaldehyde PMC leakage less than or equal to 5%)
CCCCC(CC)C1OCCO1 (stereo not shown) [Material 1043] | I (Melamine formaldehyde PMC Headspace Response Ratio greater than or equal to 10) | J (Melamine formaldehyde PMC leakage less than or equal to 5%) | – | –
CC(C)CCCC(C)CC=O (stereo not shown) [Material 1051] | – | – | I (Melamine formaldehyde PMC Headspace Response Ratio greater than or equal to 10) | J (Melamine formaldehyde PMC leakage less than or equal to 5%)
